In the supplement of paper PMC12889115:
This is one part of the list. Values are raw readings; no control value is given beside them.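 In the initial screen, polymyxin B was used at a concentration that permeabilizes Salmonella's outer membrane but not its inner membrane. Maximum growth was set by DMSO wells with or without polymyxin B. Since plates varied, data were ranked per plate, and compounds giving the lowest OD600 advanced as hits.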

Tested on: Salmonella enterica serovar Typhimurium SL1344
Assay: bacterial growth OD600 after 18 h with compound and polymyxin B; higher = more bacterial growth (less inhibition)
Conditions: 50 µM, Mueller-Hinton broth

| Compound | bacterial growth OD600 (polymyxin B 1 µg/mL) | bacterial growth OD600 (polymyxin B 0.75 µg/mL) |
| --- | --- | --- |
| COCCN(C)C(=O)C1CCC(=O)N(Cc2cccc(C(F)(F)F)c2)C1 (centres undefined) | 0.949 |  |
| CC1(C)[C@H]2CC=C(CN3CCC(N4CCC(C(=O)NC5CC5)CC4)CC3)[C@@H]1C2 | 0.867 |  |
| Cc1c(CC(=O)NC2CCOC2=O)c2c(n1Cc1ccccc1F)CCCC2=O (centres undefined) | 1.18 |  |
| CCN(Cc1nccn1C)C(=O)c1ccc(N2CCCC(CO)C2)nc1 (centres undefined) |  | 0.811 |
| O=C1CCCCN1CCC(=O)N1CCCC(CCc2cccc(F)c2)C1 (centres undefined) |  | 0.857 |
| CCN(Cc1ccncc1)C(=O)c1coc(COc2cccc(F)c2)n1 | 0.941 |  |
| CC(=O)CCC(=O)N(CCc1ccccc1)CC1CCCN(C)C1 (centres undefined) | 0.918 |  |
| CC(C)CC(=O)C1CCCN(C(=O)CC2(c3ccc(-c4ccccc4)cc3)CC(=O)N(C)C2=O)C1 (centres undefined) |  | -0.066 |
| CC(C)NC(=O)N1CCCC(CNC(=O)c2ccccc2Cl)C1 (centres undefined) |  | 0.777 |
| CCOC(=O)C1(CCCc2ccccc2)CCN(C2CCSCC2)CC1 | 0.77 |  |
| Cc1nc(N2CCC(C(=O)NCc3ccc(N4CCOCC4)cc3)CC2)nc2ccc(C(C)C)cc12 |  | 0.688 |
| Cc1ccc(NC2CCCN(C(=O)c3cc4ccccc4cn3)C2)cc1C (centres undefined) | 0.91 |  |
| Cc1cccc(CN2C[C@H](O)[C@@H](N3CCN(c4ccccn4)CC3)C2)c1 |  | 0.826 |
| COc1ccccc1CN1CCCC(N2CCN(c3ccccc3C)CC2)C1 (centres undefined) | 0.993 |  |
| CCCNC(=O)NCc1cccnc1N1CCN(c2ccccc2C)CC1 | 0.011 |  |
| COc1ccc(CCN2CC(C(=O)N3CCCCCCC3)CCC2=O)cc1 (centres undefined) | 0.887 |  |
| COc1cc(CC(=O)N2CCC(n3c(C4CCCO4)nc4cc(C(F)(F)F)ccc43)CC2)cc(OC)c1OC (centres undefined) |  | 0.782 |
| CCOC(=O)CNC(=O)N1C[C@H]2OC(=O)N(CCc3ccc(OC)cc3)[C@H]2C1 | 0.9 |  |
| COc1ccc(C(=O)Nc2ccnn2C2CCN(C(=O)CSC)CC2)cc1 | 1.24 |  |

Full records as entered above:
CCOC(=O)CNC(=O)N1C[C@H]2OC(=O)N(CCc3ccc(OC)cc3)[C@H]2C1 is entered as bacterial growth OD600 (polymyxin B 1 µg/mL): 0.9
Cc1ccc(NC2CCCN(C(=O)c3cc4ccccc4cn3)C2)cc1C (centres undefined) is entered as bacterial growth OD600 (polymyxin B 1 µg/mL): 0.91
